Some of the results follow. Most values lie at the level of the controls, where differences are scatter.
Compound: CN[C@@H]1C[C@H]2O[C@@](C)([C@@H]1OC)n1c3ccccc3c3c4c(c5c6ccccc6n2c5c31)C(=O)NC4 [staurosporine]
Assay: log2 fold change of tryptic peptide abundance, ligand vs vehicle (limited proteolysis) (log2 ratio); higher = more trypsin-susceptible (destabilized)
Conditions: ligand concentration: 20 uM; sample: K562 cleared lysate; digestion: 4 min, 22 C (HT-PELSA RT4min, Orbitrap Astral)

By UniProt entry, the sequences of proteins in these tests, tags left out. Where a name states a change or a piece, a line headed by the entry shows the natural chain unless it says otherwise.
UniProt Q15389: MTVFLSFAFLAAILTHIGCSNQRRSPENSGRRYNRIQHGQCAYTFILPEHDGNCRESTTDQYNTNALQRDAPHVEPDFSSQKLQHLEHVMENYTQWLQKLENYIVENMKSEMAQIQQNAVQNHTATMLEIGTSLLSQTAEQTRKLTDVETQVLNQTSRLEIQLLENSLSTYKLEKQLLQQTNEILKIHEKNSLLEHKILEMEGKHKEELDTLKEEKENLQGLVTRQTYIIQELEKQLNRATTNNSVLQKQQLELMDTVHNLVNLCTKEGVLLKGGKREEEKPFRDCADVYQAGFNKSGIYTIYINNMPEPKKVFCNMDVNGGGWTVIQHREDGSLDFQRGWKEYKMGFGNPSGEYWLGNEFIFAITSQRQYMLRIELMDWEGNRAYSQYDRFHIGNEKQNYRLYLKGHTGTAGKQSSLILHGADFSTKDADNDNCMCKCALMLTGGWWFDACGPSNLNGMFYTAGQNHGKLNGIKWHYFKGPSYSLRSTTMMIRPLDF
UniProt Q16384, whole entry: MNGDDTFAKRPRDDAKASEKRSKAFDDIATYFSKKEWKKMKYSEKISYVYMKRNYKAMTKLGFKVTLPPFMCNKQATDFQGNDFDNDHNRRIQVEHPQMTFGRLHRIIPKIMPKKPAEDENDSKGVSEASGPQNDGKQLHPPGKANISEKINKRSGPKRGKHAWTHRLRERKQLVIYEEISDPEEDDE
UniProt Q15735: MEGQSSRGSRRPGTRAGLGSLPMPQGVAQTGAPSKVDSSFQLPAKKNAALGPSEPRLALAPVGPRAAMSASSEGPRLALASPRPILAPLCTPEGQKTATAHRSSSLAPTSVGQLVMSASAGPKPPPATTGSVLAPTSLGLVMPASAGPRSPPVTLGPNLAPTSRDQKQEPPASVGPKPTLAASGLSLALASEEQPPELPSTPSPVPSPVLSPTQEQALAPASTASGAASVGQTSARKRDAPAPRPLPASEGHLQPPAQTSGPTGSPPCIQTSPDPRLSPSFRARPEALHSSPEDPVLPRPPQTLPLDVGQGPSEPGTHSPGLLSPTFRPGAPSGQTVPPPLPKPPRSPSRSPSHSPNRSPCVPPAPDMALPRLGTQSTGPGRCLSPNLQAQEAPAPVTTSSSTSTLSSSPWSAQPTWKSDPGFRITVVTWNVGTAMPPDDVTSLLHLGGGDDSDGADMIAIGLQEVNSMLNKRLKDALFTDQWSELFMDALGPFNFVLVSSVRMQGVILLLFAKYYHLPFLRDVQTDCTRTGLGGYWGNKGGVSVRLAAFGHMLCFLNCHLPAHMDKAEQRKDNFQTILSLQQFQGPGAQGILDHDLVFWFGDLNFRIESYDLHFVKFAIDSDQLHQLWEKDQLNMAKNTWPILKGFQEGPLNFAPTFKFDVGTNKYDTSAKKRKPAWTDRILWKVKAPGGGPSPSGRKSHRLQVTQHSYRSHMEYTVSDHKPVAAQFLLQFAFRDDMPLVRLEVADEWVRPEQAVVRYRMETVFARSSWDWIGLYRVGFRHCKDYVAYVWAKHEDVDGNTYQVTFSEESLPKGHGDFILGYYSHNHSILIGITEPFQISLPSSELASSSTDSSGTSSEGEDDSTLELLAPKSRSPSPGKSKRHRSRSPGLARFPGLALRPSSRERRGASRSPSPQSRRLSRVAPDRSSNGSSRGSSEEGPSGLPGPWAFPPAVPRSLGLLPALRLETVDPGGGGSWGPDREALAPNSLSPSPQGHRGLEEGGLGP
UniProt Q15075: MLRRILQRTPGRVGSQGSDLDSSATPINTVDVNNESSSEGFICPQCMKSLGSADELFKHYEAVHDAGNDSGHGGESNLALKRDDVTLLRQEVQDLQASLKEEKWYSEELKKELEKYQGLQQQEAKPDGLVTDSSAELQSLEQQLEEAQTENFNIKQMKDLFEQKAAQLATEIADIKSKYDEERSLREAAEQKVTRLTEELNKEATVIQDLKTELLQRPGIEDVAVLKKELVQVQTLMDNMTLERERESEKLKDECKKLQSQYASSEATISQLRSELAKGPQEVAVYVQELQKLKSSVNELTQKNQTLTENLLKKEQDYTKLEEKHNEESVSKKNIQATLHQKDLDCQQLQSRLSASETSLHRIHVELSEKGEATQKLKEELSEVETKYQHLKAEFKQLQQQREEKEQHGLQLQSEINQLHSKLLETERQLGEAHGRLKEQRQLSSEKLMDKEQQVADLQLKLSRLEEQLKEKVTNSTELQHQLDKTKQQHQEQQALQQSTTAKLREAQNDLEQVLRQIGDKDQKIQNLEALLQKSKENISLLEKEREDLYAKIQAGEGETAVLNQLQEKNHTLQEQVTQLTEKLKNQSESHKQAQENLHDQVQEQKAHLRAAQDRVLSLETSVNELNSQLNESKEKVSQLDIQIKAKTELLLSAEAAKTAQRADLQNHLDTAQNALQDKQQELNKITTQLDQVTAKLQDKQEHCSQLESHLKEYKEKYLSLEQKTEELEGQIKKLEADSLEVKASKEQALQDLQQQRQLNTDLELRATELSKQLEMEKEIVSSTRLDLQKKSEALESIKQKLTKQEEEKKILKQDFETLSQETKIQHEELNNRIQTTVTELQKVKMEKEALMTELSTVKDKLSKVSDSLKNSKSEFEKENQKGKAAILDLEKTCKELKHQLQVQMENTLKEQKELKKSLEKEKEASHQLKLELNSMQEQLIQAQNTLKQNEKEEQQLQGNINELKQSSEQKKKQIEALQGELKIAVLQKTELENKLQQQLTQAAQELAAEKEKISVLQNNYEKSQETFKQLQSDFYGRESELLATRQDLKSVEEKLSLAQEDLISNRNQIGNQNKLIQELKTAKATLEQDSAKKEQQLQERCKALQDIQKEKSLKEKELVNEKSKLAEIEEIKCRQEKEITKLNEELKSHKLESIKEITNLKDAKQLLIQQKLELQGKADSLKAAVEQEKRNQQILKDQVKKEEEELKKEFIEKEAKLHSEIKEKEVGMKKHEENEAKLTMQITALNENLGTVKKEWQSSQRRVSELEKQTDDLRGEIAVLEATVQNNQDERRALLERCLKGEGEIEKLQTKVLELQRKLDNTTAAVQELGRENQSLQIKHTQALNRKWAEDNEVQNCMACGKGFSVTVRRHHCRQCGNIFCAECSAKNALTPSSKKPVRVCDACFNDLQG
UniProt Q15345: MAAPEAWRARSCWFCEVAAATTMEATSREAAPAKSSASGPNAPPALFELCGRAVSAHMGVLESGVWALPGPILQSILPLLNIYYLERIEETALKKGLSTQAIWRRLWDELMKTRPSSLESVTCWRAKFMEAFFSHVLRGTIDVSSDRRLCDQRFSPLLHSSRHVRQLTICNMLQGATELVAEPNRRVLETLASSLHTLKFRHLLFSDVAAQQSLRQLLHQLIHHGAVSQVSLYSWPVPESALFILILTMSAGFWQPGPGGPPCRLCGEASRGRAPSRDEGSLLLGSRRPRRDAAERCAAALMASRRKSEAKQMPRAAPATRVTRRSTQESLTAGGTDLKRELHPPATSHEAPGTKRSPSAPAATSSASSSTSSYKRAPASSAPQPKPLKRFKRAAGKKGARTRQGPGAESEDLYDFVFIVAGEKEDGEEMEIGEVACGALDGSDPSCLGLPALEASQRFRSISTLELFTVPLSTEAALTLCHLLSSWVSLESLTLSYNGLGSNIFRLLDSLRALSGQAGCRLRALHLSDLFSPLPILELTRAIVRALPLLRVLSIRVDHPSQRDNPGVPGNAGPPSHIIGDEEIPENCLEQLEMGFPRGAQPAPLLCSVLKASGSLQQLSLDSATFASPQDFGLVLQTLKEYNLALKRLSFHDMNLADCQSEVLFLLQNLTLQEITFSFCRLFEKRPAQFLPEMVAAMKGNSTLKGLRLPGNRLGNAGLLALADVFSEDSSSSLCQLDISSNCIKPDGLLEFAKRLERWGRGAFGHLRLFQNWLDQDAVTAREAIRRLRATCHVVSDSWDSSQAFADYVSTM
UniProt Q3SY69: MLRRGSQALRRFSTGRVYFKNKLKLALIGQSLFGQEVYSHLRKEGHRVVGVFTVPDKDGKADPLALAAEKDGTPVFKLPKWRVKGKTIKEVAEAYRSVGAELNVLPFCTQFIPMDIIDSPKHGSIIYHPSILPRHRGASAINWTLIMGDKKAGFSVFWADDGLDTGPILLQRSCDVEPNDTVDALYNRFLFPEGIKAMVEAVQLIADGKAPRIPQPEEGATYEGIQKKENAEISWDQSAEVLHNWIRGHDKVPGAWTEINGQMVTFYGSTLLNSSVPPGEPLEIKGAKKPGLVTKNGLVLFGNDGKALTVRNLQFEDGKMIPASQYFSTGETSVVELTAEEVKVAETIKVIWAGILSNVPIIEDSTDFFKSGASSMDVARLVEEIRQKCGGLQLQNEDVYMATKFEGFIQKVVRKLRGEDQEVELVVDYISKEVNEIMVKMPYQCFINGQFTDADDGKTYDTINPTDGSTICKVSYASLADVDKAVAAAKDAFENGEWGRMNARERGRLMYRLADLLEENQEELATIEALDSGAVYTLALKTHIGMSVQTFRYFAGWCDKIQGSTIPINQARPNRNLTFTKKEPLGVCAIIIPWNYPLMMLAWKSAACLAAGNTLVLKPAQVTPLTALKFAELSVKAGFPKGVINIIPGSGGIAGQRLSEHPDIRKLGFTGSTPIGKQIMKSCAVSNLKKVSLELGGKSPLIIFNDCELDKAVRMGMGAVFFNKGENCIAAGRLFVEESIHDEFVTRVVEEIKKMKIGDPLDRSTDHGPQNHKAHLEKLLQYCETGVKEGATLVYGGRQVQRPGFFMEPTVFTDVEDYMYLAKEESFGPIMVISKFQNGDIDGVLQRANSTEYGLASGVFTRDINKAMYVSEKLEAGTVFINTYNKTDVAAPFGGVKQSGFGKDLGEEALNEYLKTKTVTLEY

Row | Target | log2 fold change
1 | UniProt Q15389 (peptide sequence: QTYIIQELEK, peptide start residue: 226) | -0.249
2 | SSX1 (peptide sequence: KPAEDENDSK, peptide start residue: 115) (UniProt Q16384) | -0.679
3 | INPP5J (peptide sequence: SLGLLPALR, peptide start residue: 957) (UniProt Q15735) | -0.041
4 | EEA1 (peptide sequence: LAEIEEIK, peptide start residue: 1126) (UniProt Q15075) | 0.157
5 | LRRC41 (peptide sequence: APASSAPQPKPLKR, peptide start residue: 377) (UniProt Q15345) | -0.44
6 | ALDH1L2 (peptide sequence: DAFENGEWGR, peptide start residue: 491) (UniProt Q3SY69) | -0.232
7 | MAPRE2 (peptide sequence: GRFQDNLDFIQWFK, peptide start residue: 142) (UniProt Q15555) | 0.332
8 | GON4L (peptide sequence: WTVVKTEEGR, peptide start residue: 1290) (UniProt Q3T8J9) | -1.15
